Values quoted from earlier work as cited in patent US20080262071A1 (priority 2004, published 2008).

Settings: PMS subjects; cited from earlier work

CC(C)NCC(O)COc1ccc(CC(N)=O)cc1 (stereo not shown) [atenolol]
irritability, vigor, elation and friendliness ratings: significant improvements
